Test results reported in the supplement of paper PMC10849652.
Some of the results follow.

Protein sequences, listed by entry. Tags and fused reporters are not part of them. Lines headed by an entry give the natural chain unless they say otherwise; changes in a name come on top.
UniProt O43395: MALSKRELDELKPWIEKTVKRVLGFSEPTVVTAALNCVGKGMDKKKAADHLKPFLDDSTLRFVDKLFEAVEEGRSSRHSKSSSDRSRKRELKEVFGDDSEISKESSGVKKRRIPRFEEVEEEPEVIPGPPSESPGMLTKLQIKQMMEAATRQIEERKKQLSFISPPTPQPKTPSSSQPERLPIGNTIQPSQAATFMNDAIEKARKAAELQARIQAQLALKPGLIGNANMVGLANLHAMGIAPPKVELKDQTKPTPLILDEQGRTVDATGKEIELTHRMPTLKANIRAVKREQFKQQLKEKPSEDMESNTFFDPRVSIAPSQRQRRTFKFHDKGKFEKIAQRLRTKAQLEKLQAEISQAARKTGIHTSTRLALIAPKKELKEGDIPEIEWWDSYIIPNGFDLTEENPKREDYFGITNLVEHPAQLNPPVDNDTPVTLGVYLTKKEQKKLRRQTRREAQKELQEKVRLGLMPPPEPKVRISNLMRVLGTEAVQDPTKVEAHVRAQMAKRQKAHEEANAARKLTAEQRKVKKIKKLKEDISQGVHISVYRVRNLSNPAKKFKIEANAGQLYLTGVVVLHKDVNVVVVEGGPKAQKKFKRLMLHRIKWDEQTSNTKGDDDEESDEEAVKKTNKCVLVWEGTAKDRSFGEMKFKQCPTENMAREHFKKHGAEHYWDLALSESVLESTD
UniProt Q96C90: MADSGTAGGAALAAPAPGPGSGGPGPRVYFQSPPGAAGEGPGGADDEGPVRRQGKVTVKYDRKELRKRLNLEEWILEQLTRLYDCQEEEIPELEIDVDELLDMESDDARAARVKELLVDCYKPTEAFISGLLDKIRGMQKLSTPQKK
UniProt P13861, whole entry, looked up: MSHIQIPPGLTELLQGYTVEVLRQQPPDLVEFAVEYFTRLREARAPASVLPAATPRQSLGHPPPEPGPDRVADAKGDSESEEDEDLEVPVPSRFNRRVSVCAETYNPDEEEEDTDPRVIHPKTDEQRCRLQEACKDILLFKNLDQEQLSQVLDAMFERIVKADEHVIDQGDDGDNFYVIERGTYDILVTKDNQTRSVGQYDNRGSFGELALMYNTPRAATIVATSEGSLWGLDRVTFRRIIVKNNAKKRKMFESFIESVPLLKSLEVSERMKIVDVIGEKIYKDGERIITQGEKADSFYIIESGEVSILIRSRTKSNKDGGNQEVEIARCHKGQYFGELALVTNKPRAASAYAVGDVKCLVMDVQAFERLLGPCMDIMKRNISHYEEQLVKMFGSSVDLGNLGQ
UniProt Q9UNN8: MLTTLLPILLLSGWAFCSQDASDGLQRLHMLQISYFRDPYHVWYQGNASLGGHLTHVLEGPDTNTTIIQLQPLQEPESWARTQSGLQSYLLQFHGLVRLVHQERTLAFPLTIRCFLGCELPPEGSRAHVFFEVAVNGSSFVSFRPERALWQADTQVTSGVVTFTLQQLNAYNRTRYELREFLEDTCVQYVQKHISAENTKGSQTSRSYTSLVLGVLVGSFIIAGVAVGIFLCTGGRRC
UniProt O75807, whole entry, looked up: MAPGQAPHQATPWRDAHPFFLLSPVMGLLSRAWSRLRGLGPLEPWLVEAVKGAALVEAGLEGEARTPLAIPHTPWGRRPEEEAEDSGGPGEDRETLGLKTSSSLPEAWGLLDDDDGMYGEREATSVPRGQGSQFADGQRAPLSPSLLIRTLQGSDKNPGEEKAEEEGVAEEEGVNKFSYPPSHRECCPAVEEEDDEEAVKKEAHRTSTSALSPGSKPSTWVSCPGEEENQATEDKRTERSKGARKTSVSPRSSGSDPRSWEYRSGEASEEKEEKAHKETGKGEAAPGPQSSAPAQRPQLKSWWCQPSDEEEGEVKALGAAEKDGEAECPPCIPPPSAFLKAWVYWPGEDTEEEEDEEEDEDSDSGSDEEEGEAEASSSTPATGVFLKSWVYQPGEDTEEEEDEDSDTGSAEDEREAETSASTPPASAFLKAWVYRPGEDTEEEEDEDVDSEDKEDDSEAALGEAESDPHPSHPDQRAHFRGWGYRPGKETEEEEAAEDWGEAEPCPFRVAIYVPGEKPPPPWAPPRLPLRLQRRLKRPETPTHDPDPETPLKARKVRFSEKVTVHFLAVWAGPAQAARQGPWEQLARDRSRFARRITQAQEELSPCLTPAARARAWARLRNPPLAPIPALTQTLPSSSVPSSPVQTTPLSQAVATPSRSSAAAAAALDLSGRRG
UniProt Q13362, whole entry, looked up: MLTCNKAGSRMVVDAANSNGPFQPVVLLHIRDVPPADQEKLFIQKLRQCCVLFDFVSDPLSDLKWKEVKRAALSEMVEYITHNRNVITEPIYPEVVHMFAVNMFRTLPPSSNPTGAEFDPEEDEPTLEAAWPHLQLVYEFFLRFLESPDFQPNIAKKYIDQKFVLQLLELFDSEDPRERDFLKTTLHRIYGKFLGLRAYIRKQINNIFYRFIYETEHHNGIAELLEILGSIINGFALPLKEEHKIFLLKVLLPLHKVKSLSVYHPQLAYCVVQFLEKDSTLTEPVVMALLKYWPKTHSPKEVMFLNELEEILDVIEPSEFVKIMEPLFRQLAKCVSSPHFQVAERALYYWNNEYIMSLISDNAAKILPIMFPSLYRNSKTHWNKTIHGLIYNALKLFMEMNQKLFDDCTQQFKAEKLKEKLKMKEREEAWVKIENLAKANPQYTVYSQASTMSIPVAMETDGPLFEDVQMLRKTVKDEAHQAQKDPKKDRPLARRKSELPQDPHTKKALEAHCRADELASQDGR
UniProt Q96LA8, whole entry, looked up: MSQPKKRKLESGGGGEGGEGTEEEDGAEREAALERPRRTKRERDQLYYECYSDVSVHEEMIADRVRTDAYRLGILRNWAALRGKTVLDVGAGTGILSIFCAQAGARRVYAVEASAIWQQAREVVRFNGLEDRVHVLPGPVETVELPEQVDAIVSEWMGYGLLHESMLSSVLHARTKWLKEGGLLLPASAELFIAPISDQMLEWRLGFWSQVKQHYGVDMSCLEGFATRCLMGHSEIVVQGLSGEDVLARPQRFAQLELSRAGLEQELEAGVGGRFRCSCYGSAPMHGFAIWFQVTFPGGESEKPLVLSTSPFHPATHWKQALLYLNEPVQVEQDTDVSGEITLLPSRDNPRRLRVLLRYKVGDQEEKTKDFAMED
UniProt Q15172: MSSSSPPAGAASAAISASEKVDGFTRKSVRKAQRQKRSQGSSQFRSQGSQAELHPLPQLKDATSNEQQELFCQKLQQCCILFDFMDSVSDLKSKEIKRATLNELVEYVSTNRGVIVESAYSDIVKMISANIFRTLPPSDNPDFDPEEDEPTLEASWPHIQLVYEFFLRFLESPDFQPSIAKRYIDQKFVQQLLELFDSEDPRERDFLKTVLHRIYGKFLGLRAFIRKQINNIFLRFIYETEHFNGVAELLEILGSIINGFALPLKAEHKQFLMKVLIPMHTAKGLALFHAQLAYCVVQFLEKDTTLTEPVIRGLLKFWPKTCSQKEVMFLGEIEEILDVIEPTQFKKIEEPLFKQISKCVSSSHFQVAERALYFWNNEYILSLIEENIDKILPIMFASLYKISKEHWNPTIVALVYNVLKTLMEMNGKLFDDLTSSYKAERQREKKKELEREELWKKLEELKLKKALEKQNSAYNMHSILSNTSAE
UniProt Q13029: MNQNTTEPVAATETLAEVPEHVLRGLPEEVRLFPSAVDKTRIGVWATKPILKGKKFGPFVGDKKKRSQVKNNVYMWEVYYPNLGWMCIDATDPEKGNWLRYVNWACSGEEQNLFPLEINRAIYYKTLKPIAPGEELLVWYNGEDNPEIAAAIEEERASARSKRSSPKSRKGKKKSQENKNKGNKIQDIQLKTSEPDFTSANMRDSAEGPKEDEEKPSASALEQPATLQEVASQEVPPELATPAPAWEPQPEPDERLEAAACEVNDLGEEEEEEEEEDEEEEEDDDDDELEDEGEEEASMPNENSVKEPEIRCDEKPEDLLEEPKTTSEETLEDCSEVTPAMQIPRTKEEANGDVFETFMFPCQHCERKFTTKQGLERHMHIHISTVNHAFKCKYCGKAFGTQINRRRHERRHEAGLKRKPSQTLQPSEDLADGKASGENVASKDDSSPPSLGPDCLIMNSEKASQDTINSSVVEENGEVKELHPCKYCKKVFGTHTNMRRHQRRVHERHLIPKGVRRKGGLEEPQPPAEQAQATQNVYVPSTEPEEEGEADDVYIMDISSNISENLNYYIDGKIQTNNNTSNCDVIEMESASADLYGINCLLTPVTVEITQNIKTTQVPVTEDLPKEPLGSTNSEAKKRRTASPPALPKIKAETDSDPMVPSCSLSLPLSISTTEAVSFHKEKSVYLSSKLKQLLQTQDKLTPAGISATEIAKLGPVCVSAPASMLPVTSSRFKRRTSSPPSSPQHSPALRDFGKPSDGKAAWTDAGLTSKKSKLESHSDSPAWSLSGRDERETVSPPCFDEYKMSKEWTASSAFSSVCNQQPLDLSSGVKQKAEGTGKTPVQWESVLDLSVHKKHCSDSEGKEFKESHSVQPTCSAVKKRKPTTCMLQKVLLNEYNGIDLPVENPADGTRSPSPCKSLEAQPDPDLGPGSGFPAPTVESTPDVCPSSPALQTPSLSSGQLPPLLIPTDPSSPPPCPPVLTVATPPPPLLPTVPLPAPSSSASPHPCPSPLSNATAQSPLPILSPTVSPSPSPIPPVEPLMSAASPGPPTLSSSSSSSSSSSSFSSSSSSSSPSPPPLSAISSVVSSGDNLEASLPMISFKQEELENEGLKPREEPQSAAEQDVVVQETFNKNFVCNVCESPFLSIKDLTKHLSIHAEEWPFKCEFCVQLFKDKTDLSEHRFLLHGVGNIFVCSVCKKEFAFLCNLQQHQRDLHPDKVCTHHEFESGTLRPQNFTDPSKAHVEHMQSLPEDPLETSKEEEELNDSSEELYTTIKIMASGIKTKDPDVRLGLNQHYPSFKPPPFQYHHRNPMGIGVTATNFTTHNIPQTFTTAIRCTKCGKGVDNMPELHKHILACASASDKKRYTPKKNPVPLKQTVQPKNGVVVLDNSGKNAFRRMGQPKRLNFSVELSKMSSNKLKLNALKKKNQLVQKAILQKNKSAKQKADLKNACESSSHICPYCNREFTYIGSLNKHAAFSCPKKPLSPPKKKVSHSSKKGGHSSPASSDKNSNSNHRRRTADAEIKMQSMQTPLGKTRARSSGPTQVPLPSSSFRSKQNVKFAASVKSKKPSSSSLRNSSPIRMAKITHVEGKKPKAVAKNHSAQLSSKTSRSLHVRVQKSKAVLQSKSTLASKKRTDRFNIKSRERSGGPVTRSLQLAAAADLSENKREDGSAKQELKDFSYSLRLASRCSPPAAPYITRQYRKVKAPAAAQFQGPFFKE
UniProt Q8TAP8: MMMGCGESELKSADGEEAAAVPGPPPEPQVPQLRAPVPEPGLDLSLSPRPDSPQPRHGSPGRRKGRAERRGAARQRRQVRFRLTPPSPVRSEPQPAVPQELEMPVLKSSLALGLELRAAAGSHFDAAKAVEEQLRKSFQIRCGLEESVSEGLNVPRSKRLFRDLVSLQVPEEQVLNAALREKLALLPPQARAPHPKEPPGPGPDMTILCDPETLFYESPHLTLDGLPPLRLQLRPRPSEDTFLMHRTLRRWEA
UniProt Q6ZMI0: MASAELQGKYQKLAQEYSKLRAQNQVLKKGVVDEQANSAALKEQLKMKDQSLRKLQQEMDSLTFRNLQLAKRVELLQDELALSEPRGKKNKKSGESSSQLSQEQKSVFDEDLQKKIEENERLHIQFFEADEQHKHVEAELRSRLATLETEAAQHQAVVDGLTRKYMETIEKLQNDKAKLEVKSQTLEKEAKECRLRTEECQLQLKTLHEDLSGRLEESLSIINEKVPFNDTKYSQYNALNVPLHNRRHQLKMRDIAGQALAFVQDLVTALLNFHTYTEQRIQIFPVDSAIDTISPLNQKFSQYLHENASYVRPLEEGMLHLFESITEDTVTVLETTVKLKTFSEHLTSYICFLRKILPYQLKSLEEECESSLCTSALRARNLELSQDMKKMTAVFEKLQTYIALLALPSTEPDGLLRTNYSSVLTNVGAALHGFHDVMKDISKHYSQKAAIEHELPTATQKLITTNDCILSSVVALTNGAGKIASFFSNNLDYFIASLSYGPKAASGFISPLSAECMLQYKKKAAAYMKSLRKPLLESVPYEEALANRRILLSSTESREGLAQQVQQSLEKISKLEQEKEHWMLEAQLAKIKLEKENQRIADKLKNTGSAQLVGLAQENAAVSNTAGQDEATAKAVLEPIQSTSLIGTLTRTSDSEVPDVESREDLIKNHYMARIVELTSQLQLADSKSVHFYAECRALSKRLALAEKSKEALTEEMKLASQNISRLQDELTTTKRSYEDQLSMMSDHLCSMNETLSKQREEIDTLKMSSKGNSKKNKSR

Assays:
Experiment in all cases: log2 fold change, soluble protein after heating vs DMSO (PISA); higher = thermal stabilisation; K562 cells, 10 uM, 30 min; active = over 0.2 and 3.5 SD of the protein, either way, in both replicates (recomputed)
[1] = compound: COC1=CC=C(C=C1)CN2C=CC3=C2C=C(C=C3)C(=O)NO
Outline: (§1)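 K562 cells at 2×10^6 cells/mL were treated with 10 μM compound for 30 min. Aliquots were heated for 3 min across 48°C-58°C, pooled, and extracted in PBS with 0.5% NP-40 at 4°C; soluble protein was the supernatant after 21,000xg for 90 min. Soluble protein was quantified by TMTpro 16plex LC-MS/MS with channel sums equalised, and reported as log2 fold change in thermal stability against DMSO controls, with values from duplicates.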

filanesib = compound: CON(C)C(=O)N1N=C(c2cc(F)ccc2F)S[C@@]1(CCCN)c1ccccc1 [filanesib]
Outline: as §1

zotarolimus = compound: CO[C@H]1C[C@@H]2CC[C@@H](C)[C@@](O)(O2)C(=O)C(=O)N2CCCC[C@H]2C(=O)O[C@H]([C@H](C)C[C@@H]2CC[C@H](n3cnnn3)[C@H](OC)C2)CC(=O)[C@H](C)/C=C(\C)[C@@H](O)[C@@H](OC)C(=O)[C@H](C)C[C@H](C)/C=C/C=C/C=C/1C [zotarolimus]
Outline: as §1

idasanutlin = compound: COc1cc(C(=O)O)ccc1NC(=O)[C@@H]1N[C@@H](CC(C)(C)C)[C@](C#N)(c2ccc(Cl)cc2F)[C@H]1c1cccc(Cl)c1F [idasanutlin]
Outline: as §1

alisertib = compound: COc1cc(Nc2ncc3c(n2)-c2ccc(Cl)cc2C(c2c(F)cccc2OC)=NC3)ccc1C(=O)O [alisertib]
Outline: as §1

[2] = compound: COc1cc2nc(-c3cc(F)ccc3O)nc(N[C@@H]3CNC[C@H]3C(C)(C)O)c2cc1OC
Outline: as §1

gefitinib = compound: COc1cc2ncnc(Nc3ccc(F)c(Cl)c3)c2cc1OCCCN1CCOCC1 [gefitinib]
Outline: as §1

[3] = compound: COc1cccc2cc(-c3nc([C@H]4CC[C@H](C(=O)O)CC4)n4ncnc(N)c34)[nH]c12
Outline: as §1

lapatinib = compound: CS(=O)(=O)CCNCc1ccc(-c2ccc3ncnc(Nc4ccc(OCc5cccc(F)c5)c(Cl)c4)c3c2)o1 [lapatinib]
Outline: as §1

pictilisib = compound: CS(=O)(=O)N1CCN(Cc2cc3nc(-c4cccc5[nH]ncc45)nc(N4CCOCC4)c3s2)CC1 [pictilisib]
Outline: as §1

[4] = compound: CS(=O)(=O)c1ccc(-c2cnc(N)c(C(=O)Nc3ccccc3)n2)cc1
Outline: as §1

crizotinib = compound: C[C@@H](Oc1cc(-c2cnn(C3CCNCC3)c2)cnc1N)c1c(Cl)ccc(F)c1Cl [crizotinib]
Outline: as §1

[5] = compound: C[C@@H]1COCCN1C2=NC(=NC(=C2)C3(CC3)S(=O)(=O)C)C4=C5C=CNC5=CC=C4
Outline: as §1

[6] = compound: C[C@H](C1=CC=C(C=C1)C(=O)NC2=C3C=CNC3=NC=C2)N
Outline: as §1

gandotinib = compound: Cc1cc(Nc2cc(CN3CCOCC3)c3nc(C)c(Cc4ccc(Cl)cc4F)n3n2)n[nH]1 [gandotinib]
Outline: as §1

[7] = compound: Cc1cc(SCc2sc(-c3ccc(C(F)(F)F)cc3)nc2C)ccc1OCC(=O)O
Outline: as §1

doramapimod = compound: Cc1ccc(-n2nc(C(C)(C)C)cc2NC(=O)Nc2ccc(OCCN3CCOCC3)c3ccccc23)cc1 [doramapimod]
Outline: as §1

ispinesib = compound: Cc1ccc(C(=O)N(CCCN)[C@@H](c2nc3cc(Cl)ccc3c(=O)n2Cc2ccccc2)C(C)C)cc1 [ispinesib]
Outline: as §1

duvelisib = compound: C[C@H](Nc1ncnc2nc[nH]c12)c1cc2cccc(Cl)c2c(=O)n1-c1ccccc1 [duvelisib]
Outline: as §1

tozasertib = compound: Cc1cc(Nc2cc(N3CCN(C)CC3)nc(Sc3ccc(NC(=O)C4CC4)cc3)n2)n[nH]1 [tozasertib]
Outline: as §1

Target | log2 fold change [1] | log2 fold change (filanesib) | log2 fold change (zotarolimus) | log2 fold change (idasanutlin) | log2 fold change (alisertib) | log2 fold change [2] | log2 fold change (gefitinib) | log2 fold change [3] | log2 fold change (lapatinib) | log2 fold change (pictilisib) | log2 fold change [4] | log2 fold change (crizotinib) | log2 fold change [5] | log2 fold change [6] | log2 fold change (gandotinib) | log2 fold change [7] | log2 fold change (doramapimod) | log2 fold change (ispinesib) | log2 fold change (duvelisib) | log2 fold change (tozasertib)
PRPF3 (UniProt O43395) | inactive: 0.18 | inactive: -0.038 | inactive: -0.048 | inactive: -0.029 | inactive: 0.031 | inactive: -0.07 | inactive: 0.06 | inactive: 0.072 | inactive: -0.02 | inactive: -0.022 | inactive: 0.009 | inactive: -0.025 | inactive: 0.114 | inactive: 0.193 | inactive: -0.067 | inactive: 0.174 | inactive: -0.024 | inactive: 0.025 |  | 
PPP1R14B (UniProt Q96C90) | inactive: 0.039 | inactive: 0.082 | inactive: 0.203 | inactive: -0.036 | inactive: -0.002 | inactive: -0.195 | inactive: 0.044 | inactive: 0.003 | inactive: 0.124 |  | inactive: 0.016 | inactive: -0.162 | inactive: -0.211 | inactive: -0.002 |  | inactive: 0.272 | inactive: 0.072 | inactive: 0.016 | inactive: -0.068 | inactive: 0.176
PRKAR2A (UniProt P13861) | inactive: -0.033 | inactive: -0.021 | inactive: 0.013 | inactive: -0.009 | inactive: -0.058 | active: -0.493 | inactive: 0.048 | inactive: 0.006 | inactive: 0.034 | inactive: 0.057 | inactive: 0.046 | inactive: -0.038 | inactive: 0.089 | inactive: -0.159 | inactive: -0.02 | inactive: 0.023 | inactive: 0.03 | inactive: -0.056 |  | 
PROCR (UniProt Q9UNN8) | inactive: -0.122 | inactive: -0.162 | inactive: -0.084 | inactive: 0.117 |  | inactive: 0.102 | inactive: 0.011 |  | inactive: 0.024 | inactive: 0.131 | inactive: 0.108 | inactive: 0.205 | inactive: 0.08 | inactive: -0.145 | inactive: -0.084 | inactive: -0.238 | inactive: -0.074 |  | inactive: 0.105 | inactive: 0.037
PPP1R15A (UniProt O75807) | inactive: -0.604 | inactive: 0.153 |  |  |  | inactive: 0.305 |  |  | inactive: -0.099 |  | inactive: 0.068 | inactive: -0.426 | inactive: 0.069 |  |  |  | inactive: -0.493 |  |  | 
PPP2R5C isoform 4 (UniProt Q13362) | inactive: 0.125 | inactive: -0.018 | inactive: -0.019 | inactive: 0.017 | inactive: 0.031 | inactive: 0.155 | inactive: -0.004 | inactive: 0.002 | inactive: 0.053 | inactive: 0.021 | inactive: 0.031 | inactive: -0.021 | inactive: -0.177 | inactive: 0.029 | inactive: -0.011 | inactive: -0.01 | inactive: -0.06 | inactive: -0.036 |  | 
PRMT6 (UniProt Q96LA8) | inactive: -0.172 |  | inactive: -0.025 | inactive: -0.058 | inactive: -0.08 | inactive: 0.093 | inactive: 0.051 | inactive: 0.042 | inactive: -0.041 | inactive: -0.019 |  | inactive: -0.019 | inactive: 0.051 | inactive: 0.149 | inactive: -0.054 | inactive: 0.197 | inactive: -0.112 | inactive: -0.025 | inactive: 0.016 | inactive: -0.009
PPP2R5A (UniProt Q15172) | inactive: 0.034 | inactive: -0.135 | inactive: 0.002 | inactive: -0.206 | inactive: -0.064 | inactive: 0.032 | inactive: -0.043 | inactive: 0.005 | inactive: 0.047 | inactive: -0.096 | inactive: -0.018 | inactive: -0.154 | inactive: 0.014 | inactive: 0.022 | inactive: -0.21 | inactive: 0.072 | inactive: -0.019 | inactive: -0.056 |  | 
PRDM2 (UniProt Q13029) | inactive: -0.261 |  | inactive: -0.148 | inactive: 0.051 | inactive: -0.158 | inactive: -0.009 | inactive: -0.174 | inactive: -0.136 | inactive: 0.015 | inactive: 0.038 |  | inactive: 0.164 | inactive: -0.067 | inactive: 0.223 | inactive: 0.052 | inactive: -0.11 | inactive: 0.237 | inactive: -0.059 | inactive: 0.032 | inactive: 0.08
PPP1R35 (UniProt Q8TAP8) | inactive: 0.003 | inactive: 0.026 | inactive: -0.004 | inactive: 0.196 | inactive: -0.003 | inactive: -0.125 | inactive: 0.027 | inactive: 0.083 | inactive: 0.011 | inactive: -0.068 | inactive: -0.025 | inactive: -0.036 | inactive: 0.179 | inactive: -0.037 | inactive: 0.044 | inactive: 0.025 | inactive: 0.024 | inactive: -0.058 |  | 
PPP1R21 (UniProt Q6ZMI0) |  | inactive: 0.045 | inactive: 0.019 | inactive: -0.005 |  | inactive: 0.04 | inactive: 0.011 |  | inactive: -0.025 | inactive: -0.091 | inactive: -0.051 |  | inactive: 0.148 | inactive: 0.062 | inactive: -0.052 | inactive: -0.007 |  |  | inactive: 0.004 | 

A run of entries from the list above, for reference:
Target | log2 fold change [1] | log2 fold change (filanesib) | log2 fold change (zotarolimus) | log2 fold change (idasanutlin) | log2 fold change (alisertib) | log2 fold change [2] | log2 fold change (gefitinib) | log2 fold change [3] | log2 fold change (lapatinib) | log2 fold change (pictilisib) | log2 fold change [4] | log2 fold change (crizotinib) | log2 fold change [5] | log2 fold change [6] | log2 fold change (gandotinib) | log2 fold change [7] | log2 fold change (doramapimod) | log2 fold change (ispinesib) | log2 fold change (duvelisib) | log2 fold change (tozasertib)
PRMT6 (UniProt Q96LA8) | inactive: -0.172 |  | inactive: -0.025 | inactive: -0.058 | inactive: -0.08 | inactive: 0.093 | inactive: 0.051 | inactive: 0.042 | inactive: -0.041 | inactive: -0.019 |  | inactive: -0.019 | inactive: 0.051 | inactive: 0.149 | inactive: -0.054 | inactive: 0.197 | inactive: -0.112 | inactive: -0.025 | inactive: 0.016 | inactive: -0.009
PPP2R5A (UniProt Q15172) | inactive: 0.034 | inactive: -0.135 | inactive: 0.002 | inactive: -0.206 | inactive: -0.064 | inactive: 0.032 | inactive: -0.043 | inactive: 0.005 | inactive: 0.047 | inactive: -0.096 | inactive: -0.018 | inactive: -0.154 | inactive: 0.014 | inactive: 0.022 | inactive: -0.21 | inactive: 0.072 | inactive: -0.019 | inactive: -0.056 |  | 
